The values that follow come from PMC5346747.

Chains of the proteins cited; added tags and fusions are not shown. Residues count along the entry.
UniProt P56704, residues 19-352: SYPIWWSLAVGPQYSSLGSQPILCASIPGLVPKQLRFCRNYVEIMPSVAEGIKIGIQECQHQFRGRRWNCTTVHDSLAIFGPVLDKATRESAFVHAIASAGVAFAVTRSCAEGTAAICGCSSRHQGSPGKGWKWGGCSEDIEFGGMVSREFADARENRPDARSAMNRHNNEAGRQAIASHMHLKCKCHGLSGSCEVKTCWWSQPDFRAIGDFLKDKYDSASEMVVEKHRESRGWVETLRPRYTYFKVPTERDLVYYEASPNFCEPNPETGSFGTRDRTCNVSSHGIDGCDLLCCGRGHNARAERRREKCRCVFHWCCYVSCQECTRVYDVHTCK

No constants are given. Whether binding was seen depends on the method and setting. Binding seen in cells or lysates may run through a third protein. Some entries that bind do so weakly or less than the wild type.

In this experiment the target is Wnt3a (human (endogenous in A549)) (UniProt P56704). Description: co-IP; lysates of OE-GPC5 A549 cells and control cells (20 mM Tris, 2.5 mM NaCl, 1% Triton X-100, pH 7.4); anti-Wnt3a antibody overnight at 4°C, Protein-G agarose, 5 washes (50 mM Tris, 150 mM NaCl, 0.1% Triton X-100, pH 7.4); SDS-PAGE.

B1: Glypican-5 (protein, UniProt P78333 25-572)
chain: EGVQTCEEVRKLFQWRLLGAVRGLPDSPRAGPDLQVCISKKPTCCTRKMEERYQIAARQDMQQFLQTSSSTLKFLISRNAAAFQETLETLIKQAENYTSILFCSTYRNMALEAAASVQEFFTDVGLYLFGADVNPEEFVNRFFDSLFPLVYNHLINPGVTDSSLEYSECIRMARRDVSPFGNIPQRVMGQMGRSLLPSRTFLQALNLGIEVINTTDYLHFSKECSRALLKMQYCPHCQGLALTKPCMGYCLNVMRGCLAHMAELNPHWHAYIRSLEELSDAMHGTYDIGHVLLNFHLLVNDAVLQAHLNGQKLLEQVNRICGRPVRTPTQSPRCSFDQSKEKHGMKTTTRNSEETLANRRKEFINSLRLYRSFYGGLADQLCANELAAADGLPCWNGEDIVKSYTQRVVGNGIKAQSGNPEVKVKGIDPVINQIIDKLKHVVQLLQGRSPKPDKWELLQLGSGGGMVEQVSGDCDDEDGCGGSGSGEVKRTLKITDWMPDDMNFSDVKQIHQTDTGSTLDTTGAGCAVATESMTFTLISVVMLLPGIW
Turning to B1, the binding result was “binds”.
